Source: publication PMC4018993, “Use of “one-pot, mix-and-read” peptide-MHC class I tetramers and predictive algorithms to improve detection of cytotoxic T lymphocyte responses in cattle” (Veterinary Research, 2014)
The amount applied is not stated for every result.

Test system: PBMC of BoLA-A18 cattle
Test: ex vivo tetramer staining of PBMC from ITM-vaccinated cattle
Method: Three cattle of BoLA-A18 haplotype (typed with PCR primers [forward] 5’-[…]-3’ and [reverse] 5’-[…]-3’ specific for BoLA-6*01301) were vaccinated by ITM [24] using the T. parva strain Muguga 3308. Whole blood was collected from these cattle at the day of vaccination (day 0) and every two days till appearance of tetramer positive cells. PBMC were purified on Ficoll paque density gradients at 2500 rpm for 25 min and 5 × 10^5 PBMC were stained with the Tp1_214-224-BoLA-6*01301 tetramer as described in the flow cytometry procedure. This animal experiment was approved by the ILRI IACUC committee [# 2012.10].

Sequence: VGYPKVKEEML [Tp1_214-224]
- day of detection of tetramer positive CTL in peripheral blood (post-immunization with live parasite vaccine, Tp1_214-224-BoLA-6*01301 tetramer): 15 to 17 days
- earliest day of CTL detection (post-vaccination, ITM, BoLA-A18 cattle, data not shown): 13 days
- day of peak CTL response (post-vaccination, ITM, Figure 5): ~15 days
